Results as given in article PMC4089487.
Results are given in words; binding and its absence hold for the method and conditions named. Some entries that bind do so weakly or less than the wild type.

Assays:
[1] = target: ICAM-5 D1–D4 fragment (the four most N-terminal glycosylated IgSF domains of intercellular cell adhesion molecule-5) (UniProt Q9UMF0); assay: crystal structure; IC5-4D crystals, space group P2_(1); 10% PEG 4000, 100 mM Tris–HCl pH 8.5, microseeding, 21°C; contacts between symmetry-related molecules analysed with PISA; 2.5 Å; both purified
[2] = target: ICAM-5 D1–D4 fragment (the four most N-terminal glycosylated IgSF domains of intercellular cell adhesion molecule-5) (UniProt Q9UMF0); assay: crystal structure; IC5-4D crystals, space group P4_(3)22; 10% PEG 4000, 100 mM Tris–HCl pH 8.5, 21°C; contacts between symmetry-related molecules analysed with PISA; 3.7 Å; both purified
[3] = target: ICAM-5 D1–D4 fragment (the four most N-terminal glycosylated IgSF domains of intercellular cell adhesion molecule-5) (UniProt Q9UMF0); assay: crystal structure; IC5-4D crystals, space group R3; 10% PEG 4000, 100 mM sodium acetate pH 5.6, 21°C; contacts between symmetry-related molecules analysed with PISA; 3.7 Å; both purified

Measured: binding

B1: ICAM-5 D1–D4 fragment (the four most N-terminal glycosylated IgSF domains of intercellular cell adhesion molecule-5) (domain or fragment, UniProt Q9UMF0 32-409)
chain: EPFWADLQPRVAFVERGGSLWLNCSTNCPRPERGGLETSLRRNGTQRGLRWLARQLVDIREPETQPVCFFRCARRTLQARGLIRTFQRPDRVELMPLPPWQPVGENFTLSCRVPGAGPRASLTLTLLRGAQELIRRSFAGEPPRARGAVLTATVLARREDHGANFSCRAELDLRPHGLGLFENSSAPRELRTFSLSPDAPRLAAPRLLEVGSERPVSCTLDGLFPASEARVYLALGDQNLSPDVTLEGDAFVATATATASAEQEGARQLVCNVTLGGENRETRENVTIYSFPAPLLTLSEPSVSEGQMVTVTCAAGAQALVTLEGVPAAVPGQPAQLQLNATENDDRRSFFCDATLDVDGETLIKNRSAELRVLYAPR
modifications: N-linked glycans (among others at Asn23, Asn239, Asn272, Asn285)
binds: all assays above
